Assays:
Format in all cases: cell-based
[1] = tested on: PC3 (prostate); experiment: MTT in vitro cytotoxic activity assay, PC3; conditions: Homo sapiens, PC-3; PC3 cells, exposed for 96 hours; read-out: Cytotoxicity activity IC50, PC3 (prostate)
Method: (§1) Compounds 1-20 were screened for their in vitro cytotoxic activity utilizing a 3-(4,5-dimethyl-thiazol-2-yl)-2,5-diphenyltetrazolium bromide (MTT) assay against selected cancer human cell lines consisting of PC3 (prostate), HCT 116 (colon), A375 (melanoma), H1299 (lung), MIAPaCa-2 (pancreas), HL60 (leukemia), MCF7 (breast), MDA-MB-231 (breast) (T. Mosmann, J. Immunol. Meth., 1983, 65, 55-63). The cells were cultured at 37° C. in RMPI1640 medium supplemented with 10% fetal bovine serum, 50 IU/mL penicillin, and 50 μg/mL streptomycin in a 5% CO2 incubator. All cells were sub-cultured 3 times/week by trypsinisation. Viable cells were seeded and allowed to adhere for 12 h before a test drug was added in 96-well plates at an initial density of 1.0×10^5 cells/mL. Tumor cell lines were separately exposed to various concentrations of the tested compounds followed by incubation at a temperature of 37° C. during 96 hours inside a medium of fresh RMPI 1640. Cells were subsequently incubated at 37° C. using MTT at 0.5 mg/mL during 4 hours. After removal of supernatant, formazan crystals were dissolved in isopropanol and the optical density was measured at 570 nm. CX-4945 was used as a positive control.

[2] = tested on: HCT116 (colon); experiment: MTT in vitro cytotoxic activity assay, HCT116; conditions: Homo sapiens, HCT-116; HCT116 cells, exposed for 96 hours; read-out: Cytotoxicity activity IC50, HCT116 (colon)
Method: as §1

[3] = tested on: A375 (melanoma); experiment: MTT in vitro cytotoxic activity assay, A375; conditions: Homo sapiens, A-375; A375 cells, exposed for 96 hours; read-out: Cytotoxicity activity IC50, A375 (melanoma)
Method: as §1

[4] = tested on: H1299 (lung); experiment: MTT in vitro cytotoxic activity assay, H1299; conditions: Homo sapiens, NCI-H1299; H1299 cells, exposed for 96 hours; read-out: Cytotoxicity activity IC50, H1299 (lung)
Method: as §1

[5] = tested on: MIAPaCa-2 (pancreas); experiment: MTT in vitro cytotoxic activity assay, MIAPaCa-2; conditions: Homo sapiens, MIA PaCa-2; MIAPaCa-2 cells, exposed for 96 hours; read-out: Cytotoxicity activity IC50, MIAPaCa-2 (pancreas)
Method: as §1

[6] = tested on: HL60 (leukemia); experiment: MTT in vitro cytotoxic activity assay, HL60; conditions: Homo sapiens, HL-60; HL60 cells, exposed for 96 hours; read-out: Cytotoxicity activity IC50, HL60 (leukemia)
Method: as §1

[7] = tested on: MCF7 (breast); experiment: MTT in vitro cytotoxic activity assay, MCF7; conditions: Homo sapiens; MCF7 cells, exposed for 96 hours; read-out: Cytotoxicity activity IC50, MCF7 (breast)
Method: as §1

[8] = tested on: MDA-MB-231 (breast); experiment: MTT in vitro cytotoxic activity assay, MDA-MB-231; conditions: Homo sapiens; MDA-MB-231 cells, exposed for 96 hours; read-out: Cytotoxicity activity IC50, MDA-MB-231 (breast)
Method: as §1

In the case of `O=C(O)c1ccc2c(c1)nc(Nc1cccc(Cl)c1)c1ccncc12` [CX-4945, reference compound], the IC50 [1] is reported as 2000 nM, the IC50 [2] is reported as 2300 nM and the IC50 [3] is reported as 4100 nM. It also gave an IC50 [4] of 2300 nM, an IC50 [5] of 1000 nM and an IC50 [6] of 3700 nM. The IC50 [7] was 9100 nM and the IC50 [8] was 6200 nM.
